Measurements: patent US20260209386A1
These are yes or no findings as the source states them, for the method shown. Some results given as binding are weak or reduced against the parent protein; the word gives no strength. Tags and fused reporters may be left off the sequences shown. Each block holds one binder with its values, some of them ahead of it.

Experiments:
[1] = biological target: T1, Human PTK7 Protein, His Tag, Acro Biosystems (human) (UniProt Q13308); test: BLI (Octet), antibody on anti-human Fc sensor, 50 nM PTK7; 2 = substantially similar binding
T1 sequence: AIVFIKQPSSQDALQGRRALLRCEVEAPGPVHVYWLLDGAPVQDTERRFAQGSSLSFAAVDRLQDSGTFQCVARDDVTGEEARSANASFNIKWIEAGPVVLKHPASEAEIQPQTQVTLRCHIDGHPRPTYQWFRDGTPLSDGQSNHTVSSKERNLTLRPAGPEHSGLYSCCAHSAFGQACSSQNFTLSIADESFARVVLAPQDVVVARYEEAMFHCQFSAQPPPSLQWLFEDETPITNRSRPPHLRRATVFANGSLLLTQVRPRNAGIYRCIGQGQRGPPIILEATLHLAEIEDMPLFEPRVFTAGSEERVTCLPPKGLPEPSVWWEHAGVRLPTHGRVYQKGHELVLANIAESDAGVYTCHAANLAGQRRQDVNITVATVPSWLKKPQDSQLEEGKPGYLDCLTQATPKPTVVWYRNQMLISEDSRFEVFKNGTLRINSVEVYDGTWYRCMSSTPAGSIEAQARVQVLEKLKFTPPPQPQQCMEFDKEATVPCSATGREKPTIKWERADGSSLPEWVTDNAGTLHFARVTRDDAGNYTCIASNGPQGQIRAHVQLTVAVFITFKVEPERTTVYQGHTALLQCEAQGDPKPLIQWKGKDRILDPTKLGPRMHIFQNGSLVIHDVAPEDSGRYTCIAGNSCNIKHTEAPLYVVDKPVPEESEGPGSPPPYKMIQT

[2] = biological target: T1, Human PTK7 Protein, His Tag, Acro Biosystems (human); test: BLI, anti-human Fc capture, 50 nM PTK7; 2 = substantially similar binding relative to parent
[3] = biological target: T1, Human PTK7 Protein, His Tag, Acro Biosystems (human); test: BLI (Octet), antibody on anti-human Fc sensor, 50 nM PTK7, dissociation at pH 7.4 or 5.4; 1 = pH dependent binding relative to parent
[4] = biological target: T1, Human PTK7 Protein, His Tag, Acro Biosystems (human); test: BLI (Octet), antibody on anti-human Fc sensor, 50 nM PTK7; grade 1 = pH dependent binding relative to parent
[5] = biological target: T1, Human PTK7 Protein, His Tag, Acro Biosystems (human); test: BLI, antibody on anti-human Fc sensor, 50 nM PTK7 at pH 7.4, dissociation at pH 7.4 or 5.4; 1 = pH dependent binding relative to parent

binding [1]: binds
B1: MYT10990 (antibody, V domains shown)
VH: EVQLVESGGGLVQPGGSLRLSCTASGFSLSSYAMGWVRQAPGKGLEWVGFINAGGNTYYANWAKGRFTISRDTSKNTVYLQMNSLRAEDTAVYYCARRYSRASGWYDLWGQGTLVTVSS
VL: EIVMTQSPSTLSASVGDRVIITCQASQSISSYLAWYQQKPGKAPKLLIYAASTLASGVPSRFSGSGSGAEFTLTISSLQPDDFATYYCQSYSYSSGIDYGDVFGQGTKLTVL

binding [2]: binds
B2: MYT11335 (antibody, V domains shown)
VH: EVQLVESGGGLVQPGGSLRLSCTASGIDLSRYSMGWVRQAPGKGLEWVGIISYGGSTYYASWAKGRFTISRDTSKNTVYLQMNSLRAEDTAVYFCARVGYPGYSGYGYAFDAFDPWGQGTLVTVSS
VL: EIVMTQSPSTLSASVGDRVIITCQSSKSVYNDNWLSWYQQKPGKAPKLLIYGASTLASGVPSRFSGSGSGAEFTLTISSLQPDDFATYYCAGGYSSSSDNGFGQGTKLEIK

binding [3]: binds
B3: MYT11250 (antibody, V domains shown)
VH: EVQLVESGGGLVQPGGSLRLSCTASGIDLSSYVMGWVRQAPGKGLEWVGYIYGGGGTYYATWARGRFTISRDTSKNTVYLQMNSLRAEDTAVYFCARAAADFYFNLWGQGTLVTVSS
VL: EIVMTQSPSTLSASVGDRVIITCQASQSISSYLAWYQQKPGKAPKLLIYDISDLASGVPSRFSGSGSGAEFTLTISSLQPDDFATYYCQSYYWISNSGAAFGQGTKLEIK

binding [4]: binds
B4: MYT11100 (antibody, V domains shown)
VH: EVQLVESGGGLVQPGGSLRLSCTASGLSLSSYWMSWVRQAPGKGLEWVGVISAGGNTYYANWAKGRFTISRDTSKNTVYLQMNSLRAEDTAVYFCARGDDGYTNAAYVSNLWGQGTLVTVSS
VL: EIVMTQSPSTLSASVGDRVIITCQASQSISSWLSWYQQKPGKAPKLLIYKASTLASGVPSRFSGSGSGAEFTLTISSLQPDDFATYYCQSYFDSTTIAFGQGTKLEIK

binding [5]: binds
B5: MYT11378 (antibody, V domains shown)
VH: EVQLVESGGGLVQPGGSLRLSCTASGIDLSNYAVIWVRQAPGKGLEWVGIIYTYDTTYYANWAKGRFTISRDTSKNTVYLQMNSLRAEDTAVYYCARSFSDISDLIKLWGQGTLVTVSS
VL: EIVMTQSPSTLSASVGDRVIITCQASQSLYNNKDLAWYQQKPGKAPKLLIYEASKLASGVPSRFSGSGSGAEFTLTISSLQPDDFATYYCLGEFSCGSGDCLAFGQGTKLTVL
